At least one compound was matched to its structure with a doubt left.
Assay: Solubilization with varied or substituted solubilizing agents (control experiments)
Assay type: physicochemical
Settings: variant excipient in the solubilization mixture

SMILES: NC(N)=O [Urea]
- outcome of the solubilization process (appearance): does not become solubilized during the solubilization process

— US11207256B2, “Method for solubilizing poorly water-soluble cosmetic agents” (ATHENION AG, priority 2017, dated 2021)
